This note sets out measurements from paper PMC10454580, “Exploring the Binding Affinity of the ARR2 GARP DNA Binding Domain via Comparative Methods”.

The data set concerns the target T1, GARP2-eGFP (ARR2 GARP DNA-binding domain) (UniProt Q9ZWJ9).
T1 sequence (looked up, limits assumed): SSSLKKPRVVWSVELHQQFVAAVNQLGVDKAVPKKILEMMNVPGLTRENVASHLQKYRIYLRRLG
The data set is described as follows: qDPI-ELISA. To be noted: qDPI-ELISA: TBS/TBS-T (20 mM Tris, 0.18 M NaCl, pH 7.5, 0.1% Tween-20), RT about 25 C; protein in a lysate after overexpression; protein details: eGFP fusion (pET-Dest42-GFP). (In an ELISA, binding on a coated surface is turned into a signal by an enzyme label.)

The exact form of at least one protein or probe is not confirmed. At least one result comes from cells or an extract, where the contact may be indirect. Where a protein sequence is shown, tags need not be part of it.

Consider “TTAACAATCTCAAAGATTTTGTAGATTGAAATACAAATCTTCTCT (double strand) [wtOligo (ARR5 promoter fragment)]”, for which the binding result is “binds”.
